Measured values published in PMC3747071.
Results are given in words; binding and its absence hold for the method and conditions named. Binding seen in cells or lysates may run through a third protein. A result given as binding can be weak or reduced; the word gives no strength. For part of these data: Tags and fused reporters may be left off the sequences shown. Values belong to the molecule of their own block, whether it stands above or below them.

Amino acid sequences for entries named in this document (tags omitted). A change or cut given only in a name is not applied to a line headed by its entry.
UniProt Q9VEN9: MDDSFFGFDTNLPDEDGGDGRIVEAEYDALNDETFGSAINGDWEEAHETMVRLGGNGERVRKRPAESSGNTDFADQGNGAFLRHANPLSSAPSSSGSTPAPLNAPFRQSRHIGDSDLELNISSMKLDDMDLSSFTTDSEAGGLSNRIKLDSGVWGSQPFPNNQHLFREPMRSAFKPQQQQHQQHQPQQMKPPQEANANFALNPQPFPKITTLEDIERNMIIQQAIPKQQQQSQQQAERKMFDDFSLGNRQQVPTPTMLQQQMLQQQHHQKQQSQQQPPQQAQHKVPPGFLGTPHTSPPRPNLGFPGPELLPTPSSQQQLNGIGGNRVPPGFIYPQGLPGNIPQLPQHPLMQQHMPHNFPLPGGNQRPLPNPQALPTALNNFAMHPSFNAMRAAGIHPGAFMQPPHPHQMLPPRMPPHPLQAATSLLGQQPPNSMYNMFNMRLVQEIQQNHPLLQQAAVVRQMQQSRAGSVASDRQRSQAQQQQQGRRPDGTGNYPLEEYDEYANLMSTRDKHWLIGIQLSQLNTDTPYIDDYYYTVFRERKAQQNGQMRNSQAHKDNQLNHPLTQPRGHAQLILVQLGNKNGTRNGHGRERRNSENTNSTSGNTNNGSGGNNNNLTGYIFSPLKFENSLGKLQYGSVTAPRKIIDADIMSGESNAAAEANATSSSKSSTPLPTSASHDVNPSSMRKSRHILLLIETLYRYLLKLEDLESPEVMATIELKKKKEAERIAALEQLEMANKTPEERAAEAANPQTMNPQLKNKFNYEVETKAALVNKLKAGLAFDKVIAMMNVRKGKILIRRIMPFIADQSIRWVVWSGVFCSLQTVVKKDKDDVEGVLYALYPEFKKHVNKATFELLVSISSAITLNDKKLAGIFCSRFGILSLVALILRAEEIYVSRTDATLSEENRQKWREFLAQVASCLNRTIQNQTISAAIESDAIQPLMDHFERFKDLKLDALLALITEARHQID
UniProt Q32KD4: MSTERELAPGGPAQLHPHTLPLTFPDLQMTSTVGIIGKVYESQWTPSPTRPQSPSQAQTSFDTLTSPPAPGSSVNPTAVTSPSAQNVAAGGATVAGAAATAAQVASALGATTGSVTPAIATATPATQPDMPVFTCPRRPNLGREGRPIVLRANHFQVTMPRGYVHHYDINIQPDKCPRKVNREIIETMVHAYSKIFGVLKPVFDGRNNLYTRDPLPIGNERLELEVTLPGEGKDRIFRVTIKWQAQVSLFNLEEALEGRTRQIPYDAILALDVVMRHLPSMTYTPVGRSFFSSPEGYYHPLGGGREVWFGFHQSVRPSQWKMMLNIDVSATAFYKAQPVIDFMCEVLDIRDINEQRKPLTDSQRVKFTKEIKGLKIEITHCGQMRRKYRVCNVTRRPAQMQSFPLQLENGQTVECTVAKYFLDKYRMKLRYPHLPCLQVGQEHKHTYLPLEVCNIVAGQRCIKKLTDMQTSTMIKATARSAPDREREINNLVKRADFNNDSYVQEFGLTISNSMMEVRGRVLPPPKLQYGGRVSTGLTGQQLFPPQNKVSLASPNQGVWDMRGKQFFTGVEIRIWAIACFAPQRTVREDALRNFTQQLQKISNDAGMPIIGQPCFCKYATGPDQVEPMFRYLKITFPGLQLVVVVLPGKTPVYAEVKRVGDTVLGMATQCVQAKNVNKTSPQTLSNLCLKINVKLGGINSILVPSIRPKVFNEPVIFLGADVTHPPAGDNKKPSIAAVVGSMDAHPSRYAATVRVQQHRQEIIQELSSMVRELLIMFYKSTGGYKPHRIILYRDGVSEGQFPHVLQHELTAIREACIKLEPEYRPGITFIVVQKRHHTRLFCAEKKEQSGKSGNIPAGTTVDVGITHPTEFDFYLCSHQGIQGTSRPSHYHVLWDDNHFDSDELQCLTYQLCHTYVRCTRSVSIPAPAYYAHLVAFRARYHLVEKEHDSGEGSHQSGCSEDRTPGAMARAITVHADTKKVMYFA

How the values were obtained:
[1] = biological target: HPat (endogenous) (Drosophila (endogenous in S2 cells)) (UniProt Q9VEN9); assay: co-IP; endogenous proteins from Drosophila S2 cell lysate; polyclonal anti-HPat or anti-GW182 antibody (preimmune sera as control) and protein A sepharose; NET buffer (50 mM Tris/Cl pH 7.5, 150 mM NaCl, 1 mM EDTA, 0.5% NP-40), 4°C; Western blot
[2] = biological target: T1, GW182 (endogenous) (Drosophila (endogenous in S2 cells)) (UniProt Q8SY33); assay: as above
T1 sequence: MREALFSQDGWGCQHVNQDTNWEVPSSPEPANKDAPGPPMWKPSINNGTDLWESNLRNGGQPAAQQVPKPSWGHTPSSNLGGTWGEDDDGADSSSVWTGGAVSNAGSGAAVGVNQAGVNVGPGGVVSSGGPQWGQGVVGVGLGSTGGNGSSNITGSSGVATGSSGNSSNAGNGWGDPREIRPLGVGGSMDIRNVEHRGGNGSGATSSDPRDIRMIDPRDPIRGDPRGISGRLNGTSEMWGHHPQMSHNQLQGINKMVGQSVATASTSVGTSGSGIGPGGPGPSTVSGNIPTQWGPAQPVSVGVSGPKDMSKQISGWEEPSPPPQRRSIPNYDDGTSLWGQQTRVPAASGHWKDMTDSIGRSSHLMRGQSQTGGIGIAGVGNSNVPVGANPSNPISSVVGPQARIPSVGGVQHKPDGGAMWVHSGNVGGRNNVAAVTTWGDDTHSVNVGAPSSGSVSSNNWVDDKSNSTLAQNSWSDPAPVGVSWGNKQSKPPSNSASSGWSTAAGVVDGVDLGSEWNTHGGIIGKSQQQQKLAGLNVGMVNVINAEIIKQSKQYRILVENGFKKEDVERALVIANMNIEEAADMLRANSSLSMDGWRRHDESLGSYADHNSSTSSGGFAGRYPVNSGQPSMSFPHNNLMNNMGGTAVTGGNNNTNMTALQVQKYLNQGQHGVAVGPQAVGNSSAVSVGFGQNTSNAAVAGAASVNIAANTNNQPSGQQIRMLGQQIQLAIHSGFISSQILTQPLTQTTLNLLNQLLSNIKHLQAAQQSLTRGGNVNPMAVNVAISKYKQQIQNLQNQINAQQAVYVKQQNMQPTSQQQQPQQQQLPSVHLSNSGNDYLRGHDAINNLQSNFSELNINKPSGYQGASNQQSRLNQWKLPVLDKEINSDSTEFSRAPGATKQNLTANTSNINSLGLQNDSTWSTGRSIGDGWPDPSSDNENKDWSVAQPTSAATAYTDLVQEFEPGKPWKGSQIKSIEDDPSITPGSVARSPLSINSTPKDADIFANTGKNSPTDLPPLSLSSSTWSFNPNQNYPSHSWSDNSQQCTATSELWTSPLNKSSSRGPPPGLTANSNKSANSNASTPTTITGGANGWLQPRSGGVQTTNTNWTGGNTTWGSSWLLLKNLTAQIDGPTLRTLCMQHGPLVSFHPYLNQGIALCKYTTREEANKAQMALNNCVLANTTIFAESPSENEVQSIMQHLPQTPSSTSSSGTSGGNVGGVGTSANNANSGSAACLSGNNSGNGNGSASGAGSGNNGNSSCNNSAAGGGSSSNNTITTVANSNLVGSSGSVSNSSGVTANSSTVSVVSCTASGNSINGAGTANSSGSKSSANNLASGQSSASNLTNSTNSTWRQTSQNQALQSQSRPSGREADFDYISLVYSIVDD

[3] = biological target: Twin-Strep-tagged AGO1 (Drosophila) (UniProt Q32KD4); assay: pull-down; first step of the split-affinity purification: lysate of stable S2 cells co-expressing TAP-GW182 and Twin-Strep-AGO1 or Twin-Strep-GFP on Strep-Tactin beads, biotin eluate; RNA maintaining conditions or 10 µg/ml RNase A; 50 mM Tris/Cl pH 7.5, 150 mM NaCl, 0.5% NP40, 4°C; Western blot
[4] = biological target: T2, TAP-tagged GW182 (Drosophila) (UniProt Q8SY33); assay: pull-down; second step of the split-affinity purification: biotin eluate of the Strep-Tactin pull-down on IgG cross-linked Dynabeads that bind the protein A moiety of TAP-GW182; RNA maintaining conditions or RNase A; Western blot
T2 sequence: T1 sequence

[5] = biological target: T3, HA-tagged GW182 (Drosophila) (UniProt Q8SY33); assay: co-IP; lysate of stable S2 cells expressing HA-GW182 and Myc-HPat, treated with dsRNA against YFP (control), AGO1, NOT1, EDC4 and DCP1, or XRN1; anti-HA antibody (12CA5) cross-linked to protein A sepharose; washes with NET buffer with 300 mM NaCl; quantitative Western blot
T3 sequence: T1 sequence

- binding [1]: binds
Molecule: AGO1 (endogenous) (from UniProt Q32KD4 1-984)

- binding [2]: binds
- binding [3]: binds
- binding [4]: binds
Molecule: HPat (endogenous) (from UniProt Q9VEN9)

- binding [5]: binds
Molecule: Myc-tagged HPat (Drosophila)

- binding [1]: binds
B1: GW182 (endogenous) (protein, UniProt Q8SY33-1 1-1384)
chain: T1 sequence
